Laboratory results published in the odorant receptor screen of Mainland et al. (2015).
Where “and” joins values, the source holds several entries; their conditions need not be identical. Identical values can stand only once. Some of the results follow. Each value is one well over the wells without odorant, computed here; the data are noisy.

How the values were obtained:
Test in all cases: odorant receptor activation (CRE luciferase / Renilla) (fold of no-odor wells); higher = more activation
Details in all cases: 100 µM
[1] = tested on: OR4F15 clone 1074
[2] = tested on: OR4F15 clone 1434
[3] = tested on: OR4F16 clone 1060
[4] = tested on: OR4F17 clone 1161
[5] = tested on: OR4F21 clone 1580
[6] = tested on: OR4F4 clone 1556
[7] = tested on: OR4F5 clone 1557
[8] = tested on: OR4F6 clone 1058
[9] = tested on: OR4F6 clone 1537
[10] = tested on: OR4K1 R89H clone 1269

O=C1CCCCCCCCCCCCCCO1 [pentadecalactone]
odorant receptor activation [1]: 1.06 | odorant receptor activation [2]: 1.25 | odorant receptor activation [3]: 0.757 | odorant receptor activation [4]: 0.745 | odorant receptor activation [5]: 0.806 | odorant receptor activation [6]: 0.721 | odorant receptor activation [7]: 0.884 | odorant receptor activation [8]: 1.03 | odorant receptor activation [9]: 0.868 | odorant receptor activation [10]: 0.81

CC(C)CC(=O)O [isovaleric acid]
odorant receptor activation [1]: 0.925 | odorant receptor activation [2]: 0.855 | odorant receptor activation [3]: 1.13 | odorant receptor activation [4]: 1.15 | odorant receptor activation [5]: 0.74 | odorant receptor activation [6]: 1.01 | odorant receptor activation [7]: 1.22 | odorant receptor activation [8]: 0.887 | odorant receptor activation [9]: 0.879 | odorant receptor activation [10]: 0.827

COC(=O)c1ccccc1O [methyl salicylate]
odorant receptor activation [1]: 1.03 | odorant receptor activation [2]: 0.995 | odorant receptor activation [3]: 1.12 | odorant receptor activation [4]: 0.705 | odorant receptor activation [5]: 0.686 | odorant receptor activation [6]: 1.02 | odorant receptor activation [7]: 0.981 | odorant receptor activation [8]: 1.2 | odorant receptor activation [9]: 1.16 | odorant receptor activation [10]: 0.764

c1ccc(Oc2ccccc2)cc1 [diphenyl ether]
odorant receptor activation [1]: 0.836 | odorant receptor activation [2]: 1.02 | odorant receptor activation [3]: 0.86 | odorant receptor activation [4]: 0.875 | odorant receptor activation [5]: 0.627 | odorant receptor activation [6]: 0.902 | odorant receptor activation [7]: 1.06 | odorant receptor activation [8]: 0.958 | odorant receptor activation [9]: 1.54 | odorant receptor activation [10]: 0.959

CCCCCCCC=CC=O [2-decenal]
odorant receptor activation [1]: 4.49 | odorant receptor activation [2]: 1.54 | odorant receptor activation [3]: 6.43 | odorant receptor activation [4]: 1.56 | odorant receptor activation [5]: 1.07 | odorant receptor activation [6]: 1.65 | odorant receptor activation [7]: 1.88 | odorant receptor activation [8]: 5.67 | odorant receptor activation [9]: 1.42 | odorant receptor activation [10]: 2.12

COc1ccccc1O [guaiacol]
odorant receptor activation [1]: 2.34 | odorant receptor activation [2]: 0.827 | odorant receptor activation [3]: 0.945 | odorant receptor activation [4]: 1.02 | odorant receptor activation [5]: 0.876 | odorant receptor activation [6]: 0.655 | odorant receptor activation [7]: 0.8 | odorant receptor activation [8]: 3.92 | odorant receptor activation [9]: 0.945 and 0.962 | odorant receptor activation [10]: 0.96 and 0.868

CC/C=C\CCO [cis-3-hexen-1-ol]
odorant receptor activation [1]: 0.916 | odorant receptor activation [2]: 0.194 | odorant receptor activation [3]: 0.905 | odorant receptor activation [4]: 1.01 | odorant receptor activation [5]: 1.12 | odorant receptor activation [6]: 1.17 | odorant receptor activation [7]: 1.14 | odorant receptor activation [8]: 1.07 | odorant receptor activation [9]: 1.03 | odorant receptor activation [10]: 1.43

CC1=CCC(C(C)(C)O)CC1 (stereo not given) [terpineol]
odorant receptor activation [1]: 0.928 | odorant receptor activation [2]: 0.997 | odorant receptor activation [3]: 0.982 | odorant receptor activation [4]: 1.2 | odorant receptor activation [5]: 1.1 | odorant receptor activation [6]: 2.48 | odorant receptor activation [7]: 0.979 | odorant receptor activation [8]: 1.21 | odorant receptor activation [9]: 0.911 | odorant receptor activation [10]: 0.81

C=C(C)C1CC=C(C)C(=O)C1 (stereo not given) [r-carvone]
odorant receptor activation [1]: 1.17 | odorant receptor activation [2]: 1 | odorant receptor activation [3]: 0.802 | odorant receptor activation [4]: 0.968 | odorant receptor activation [5]: 1.02 | odorant receptor activation [6]: 0.751 | odorant receptor activation [7]: 0.915 | odorant receptor activation [8]: 1.12 | odorant receptor activation [9]: 0.882 | odorant receptor activation [10]: 0.691

CCCCCCCOC(C)=O [heptyl acetate]
odorant receptor activation [1]: 1.24 | odorant receptor activation [2]: 1.02 | odorant receptor activation [3]: 0.561 | odorant receptor activation [4]: 0.649 | odorant receptor activation [5]: 0.714 | odorant receptor activation [6]: 0.683 | odorant receptor activation [7]: 0.895 | odorant receptor activation [8]: 1.13 | odorant receptor activation [9]: 1.11 and 1.05 | odorant receptor activation [10]: 0.893 and 0.937

CCCCO [1-butanol]
odorant receptor activation [1]: 4.31 | odorant receptor activation [2]: 1.66 | odorant receptor activation [3]: 2.75 | odorant receptor activation [4]: 1.2 | odorant receptor activation [5]: 0.765 | odorant receptor activation [6]: 1.34 | odorant receptor activation [7]: 1.53 | odorant receptor activation [8]: 3.69 | odorant receptor activation [9]: 1.12 | odorant receptor activation [10]: 1.3

CCCCCCOC(=O)CCC [hexyl butyrate]
odorant receptor activation [1]: 0.895 | odorant receptor activation [2]: 0.714 | odorant receptor activation [3]: 1.09 | odorant receptor activation [4]: 1.35 | odorant receptor activation [5]: 0.97 | odorant receptor activation [6]: 0.679 | odorant receptor activation [7]: 0.901 | odorant receptor activation [8]: 0.806 | odorant receptor activation [9]: 0.764 and 0.93 | odorant receptor activation [10]: 1.13 and 0.578

CC(=O)OCC=C(C)CCC=C(C)C [geranyl acetate]
odorant receptor activation [1]: 2.59 | odorant receptor activation [2]: 0.994 | odorant receptor activation [3]: 2.6 | odorant receptor activation [4]: 1.22 | odorant receptor activation [5]: 1.2 | odorant receptor activation [6]: 1.37 | odorant receptor activation [7]: 1.27 | odorant receptor activation [8]: 2.64 | odorant receptor activation [9]: 0.969 and 1.54 | odorant receptor activation [10]: 0.883 and 1.04

O=C1CCCCCCCCCCCC(=O)OCCO1 [ethylene brassylate]
odorant receptor activation [1]: 1.05 | odorant receptor activation [2]: 1.88 | odorant receptor activation [3]: 1.4 | odorant receptor activation [4]: 1.47 | odorant receptor activation [5]: 0.862 | odorant receptor activation [6]: 1.04 | odorant receptor activation [7]: 1.35 | odorant receptor activation [8]: 1.52 | odorant receptor activation [9]: 1.17 | odorant receptor activation [10]: 1.69

C=CCSCC=C [diallyl sulfide]
odorant receptor activation [1]: 0.821 | odorant receptor activation [2]: 1.01 | odorant receptor activation [3]: 0.823 | odorant receptor activation [4]: 1.02 | odorant receptor activation [5]: 0.692 | odorant receptor activation [6]: 0.859 | odorant receptor activation [7]: 1.17 | odorant receptor activation [8]: 0.976 | odorant receptor activation [9]: 1.5 | odorant receptor activation [10]: 1.01

CC=Cc1ccc(O)c(OC)c1 [isoeugenol]
odorant receptor activation [1]: 2.93 | odorant receptor activation [2]: 1.34 | odorant receptor activation [3]: 0.619 | odorant receptor activation [4]: 1.37 | odorant receptor activation [5]: 3.14 | odorant receptor activation [6]: 0.911 | odorant receptor activation [7]: 1 | odorant receptor activation [8]: 1.36 | odorant receptor activation [9]: 1.03 and 1.92 | odorant receptor activation [10]: 1.02 and 1.49

CC(=O)OC(C)(C)C1CC=C(C)CC1 (stereo not given) [terpinyl acetate]
odorant receptor activation [1]: 1.77 | odorant receptor activation [2]: 0.937 | odorant receptor activation [3]: 1.4 | odorant receptor activation [4]: 1.68 | odorant receptor activation [5]: 1.13 | odorant receptor activation [6]: 2.94 | odorant receptor activation [7]: 1.52 | odorant receptor activation [8]: 1.25 | odorant receptor activation [9]: 1.1 | odorant receptor activation [10]: 0.77

CC(C)=CCCC(C)=CC=O [citral]
odorant receptor activation [1]: 1.08 | odorant receptor activation [2]: 0.204 | odorant receptor activation [3]: 0.969 | odorant receptor activation [4]: 1.22 | odorant receptor activation [5]: 0.908 | odorant receptor activation [6]: 1.77 | odorant receptor activation [7]: 1.02 | odorant receptor activation [8]: 1.02 | odorant receptor activation [9]: 1.17 | odorant receptor activation [10]: 1.42

COc1cc(C)ccc1O [2-methoxy-4-methylphenol]
odorant receptor activation [1]: 1.88 | odorant receptor activation [2]: 1.62 | odorant receptor activation [3]: 1.91 | odorant receptor activation [4]: 1.3 | odorant receptor activation [5]: 0.833 | odorant receptor activation [6]: 1.44 | odorant receptor activation [7]: 1.63 | odorant receptor activation [8]: 2.22 | odorant receptor activation [9]: 0.85 | odorant receptor activation [10]: 0.89

CCCCCCCCOC(C)=O [octyl acetate]
odorant receptor activation [1]: 0.984 | odorant receptor activation [2]: 0.697 | odorant receptor activation [3]: 0.988 | odorant receptor activation [4]: 1.14 | odorant receptor activation [5]: 0.963 | odorant receptor activation [6]: 0.925 | odorant receptor activation [7]: 1.02 | odorant receptor activation [8]: 1.01 | odorant receptor activation [9]: 0.887 | odorant receptor activation [10]: 1.07

C=C(C)C1CC=CCC1 (stereo not given) [r-limonene]
odorant receptor activation [1]: 1.49 and 0.675 | odorant receptor activation [2]: 1.11 and 0.984 | odorant receptor activation [3]: 1.26 and 1.08 | odorant receptor activation [4]: 1.22 and 0.546 | odorant receptor activation [5]: 1.35 | odorant receptor activation [6]: 0.971 | odorant receptor activation [7]: 1.1 | odorant receptor activation [8]: 1.18 and 1.21 | odorant receptor activation [9]: 1.28 and 0.682 and 0.814 | odorant receptor activation [10]: 0.651 and 0.564

O=CCc1ccccc1 [phenyl acetaldehyde]
odorant receptor activation [1]: 1.3 | odorant receptor activation [2]: 1.42 | odorant receptor activation [3]: 1.21 | odorant receptor activation [4]: 1.14 | odorant receptor activation [5]: 2.28 | odorant receptor activation [6]: 1.82 | odorant receptor activation [7]: 1.77 | odorant receptor activation [8]: 1.17 | odorant receptor activation [9]: 1.2 | odorant receptor activation [10]: 1.12

CCCCCCCCCC=O [decyl aldehyde]
odorant receptor activation [1]: 0.793 | odorant receptor activation [2]: 1.08 | odorant receptor activation [3]: 1.07 | odorant receptor activation [4]: 1.25 | odorant receptor activation [5]: 0.748 | odorant receptor activation [6]: 0.929 | odorant receptor activation [7]: 1.12 | odorant receptor activation [8]: 1.12 | odorant receptor activation [9]: 1.47 | odorant receptor activation [10]: 1.27

COc1cc(C=O)ccc1O [vanillin]
odorant receptor activation [1]: 0.984 | odorant receptor activation [2]: 0.939 | odorant receptor activation [3]: 1.19 | odorant receptor activation [4]: 1.03 | odorant receptor activation [5]: 1.38 | odorant receptor activation [6]: 0.909 | odorant receptor activation [7]: 1.25 | odorant receptor activation [8]: 0.94 | odorant receptor activation [9]: 0.922 | odorant receptor activation [10]: 0.87

C=CCc1ccc(OC)c(OC)c1 [eugenol methyl ether]
odorant receptor activation [1]: 1.21 | odorant receptor activation [2]: 1.66 | odorant receptor activation [3]: 1.11 | odorant receptor activation [4]: 1.47 | odorant receptor activation [5]: 0.744 | odorant receptor activation [6]: 0.519 | odorant receptor activation [7]: 0.819 | odorant receptor activation [8]: 1.67 | odorant receptor activation [9]: 1.54 | odorant receptor activation [10]: 1.36

CCCCCOC(C)=O [n-amyl acetate]
odorant receptor activation [1]: 1.63 | odorant receptor activation [2]: 0.644 | odorant receptor activation [3]: 1.41 | odorant receptor activation [4]: 0.817 | odorant receptor activation [5]: 1.17 | odorant receptor activation [6]: 2.47 | odorant receptor activation [7]: 1.08 | odorant receptor activation [8]: 1.99 | odorant receptor activation [9]: 0.696 and 0.727 | odorant receptor activation [10]: 0.914
